# Measurements reported in PubChem BioAssay AID1224830 (NIAID, 2016)
# Aim: 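Regulators of TLR4 signalling towards TNF-alpha in macrophage-like cells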 (primary screen)
# Cell system: human THP-1 monocytic leukaemia cells, TNF dual-luciferase reporter clone, PMA-differentiated to macrophage-like cells
# Knock-down reagent: siRNA pool against human genes, 50 nM
# Time to read-out: LPS for 4 h, given about 3 days after siRNA transfection
# Challenge: bacterial LPS (TLR4 ligand), 10 ng/ml
# Read-out: 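Ratio of firefly to renilla light, scaled to the plate median and expressed as a robust z-score per replicate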
# Direction: TNF reporter robust z-score: higher = stronger TNF reporter response to LPS
# Hit rule: 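Each well counts as active if its z-score is over 2.8 or under -1.5; controls are left without a call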
# Here is a random part of about 18,000 reagents. Over the whole deposit, about 2,900 (16%) are marked active. 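Calls are made per well; low scores hint the gene aids the LPS response, high scores that it dampens it.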 Repeated entries: four replicate wells of each siRNA pool. Reagent sequences are not shown.
target,TNF reporter robust z-score,Outcome
ATPAF2 (ATP synthase mitochondrial F1 complex assembly factor 2),-1.05,inactive
ATPAF2 (ATP synthase mitochondrial F1 complex assembly factor 2),0.27,inactive
ATPAF2 (ATP synthase mitochondrial F1 complex assembly factor 2),0.17,inactive
ATPAF2 (ATP synthase mitochondrial F1 complex assembly factor 2),-0.47,inactive
TNS2 (tensin 2),-0.98,inactive
TNS2 (tensin 2),-1.14,inactive
TNS2 (tensin 2),-1.05,inactive
TNS2 (tensin 2),0.86,inactive
EIF4A3 (eukaryotic translation initiation factor 4A3),1.5,inactive
EIF4A3 (eukaryotic translation initiation factor 4A3),1.76,inactive
EIF4A3 (eukaryotic translation initiation factor 4A3),1.47,inactive
EIF4A3 (eukaryotic translation initiation factor 4A3),1.16,inactive
GRB10 (growth factor receptor bound protein 10),-0.34,inactive
GRB10 (growth factor receptor bound protein 10),-0.08,inactive
GRB10 (growth factor receptor bound protein 10),-0.53,inactive
GRB10 (growth factor receptor bound protein 10),-0.38,inactive
OR1L6 (olfactory receptor family 1 subfamily L member 6),2.49,inactive
OR1L6 (olfactory receptor family 1 subfamily L member 6),2.03,inactive
OR1L6 (olfactory receptor family 1 subfamily L member 6),-0.45,inactive
OR1L6 (olfactory receptor family 1 subfamily L member 6),0.51,inactive
TTPA (alpha tocopherol transfer protein),0.99,inactive
TTPA (alpha tocopherol transfer protein),0.89,inactive
TTPA (alpha tocopherol transfer protein),-0.19,inactive
TTPA (alpha tocopherol transfer protein),2.71,inactive
PPP6C (protein phosphatase 6 catalytic subunit),-0.19,inactive
PPP6C (protein phosphatase 6 catalytic subunit),0.35,inactive
PPP6C (protein phosphatase 6 catalytic subunit),0.57,inactive
PPP6C (protein phosphatase 6 catalytic subunit),0.55,inactive
HMGN1 (high mobility group nucleosome binding domain 1),2.45,inactive
HMGN1 (high mobility group nucleosome binding domain 1),3.23,active
HMGN1 (high mobility group nucleosome binding domain 1),3.45,active
HMGN1 (high mobility group nucleosome binding domain 1),1.26,inactive
ACOT9 (acyl-CoA thioesterase 9),-0.41,inactive
ACOT9 (acyl-CoA thioesterase 9),-0.6,inactive
ACOT9 (acyl-CoA thioesterase 9),-0.38,inactive
ACOT9 (acyl-CoA thioesterase 9),-0.75,inactive
CREB3L1 (cAMP responsive element binding protein 3 like 1),-1.25,inactive
CREB3L1 (cAMP responsive element binding protein 3 like 1),-0.73,inactive
CREB3L1 (cAMP responsive element binding protein 3 like 1),-1.39,inactive
CREB3L1 (cAMP responsive element binding protein 3 like 1),-1.11,inactive
PRCD (photoreceptor disc component),0.33,inactive
PRCD (photoreceptor disc component),0.14,inactive
PRCD (photoreceptor disc component),-0.75,inactive
PRCD (photoreceptor disc component),-1.01,inactive
MNAT1 (MNAT1 component of CDK activating kinase),0,inactive
MNAT1 (MNAT1 component of CDK activating kinase),4.07,active
MNAT1 (MNAT1 component of CDK activating kinase),-1.61,active
MNAT1 (MNAT1 component of CDK activating kinase),1.41,inactive
PEA15 (proliferation and apoptosis adaptor protein 15),-1.54,active
PEA15 (proliferation and apoptosis adaptor protein 15),-1.35,inactive
PEA15 (proliferation and apoptosis adaptor protein 15),-1.14,inactive
PEA15 (proliferation and apoptosis adaptor protein 15),-0.73,inactive

Continued; the last 7 above are carried over.
target,TNF reporter robust z-score,Outcome
MNAT1 (MNAT1 component of CDK activating kinase),4.07,active
MNAT1 (MNAT1 component of CDK activating kinase),-1.61,active
MNAT1 (MNAT1 component of CDK activating kinase),1.41,inactive
PEA15 (proliferation and apoptosis adaptor protein 15),-1.54,active
PEA15 (proliferation and apoptosis adaptor protein 15),-1.35,inactive
PEA15 (proliferation and apoptosis adaptor protein 15),-1.14,inactive
PEA15 (proliferation and apoptosis adaptor protein 15),-0.73,inactive
KATNAL2 (katanin catalytic subunit A1 like 2),-0.29,inactive
KATNAL2 (katanin catalytic subunit A1 like 2),-0.39,inactive
KATNAL2 (katanin catalytic subunit A1 like 2),-0.44,inactive
KATNAL2 (katanin catalytic subunit A1 like 2),-0.83,inactive
HVCN1 (hydrogen voltage gated channel 1),-1.52,active
HVCN1 (hydrogen voltage gated channel 1),0.1,inactive
HVCN1 (hydrogen voltage gated channel 1),-0.9,inactive
HVCN1 (hydrogen voltage gated channel 1),-0.1,inactive
HEMK1,-0.1,inactive
HEMK1,-0.32,inactive
HEMK1,-0.36,inactive
HEMK1,0.3,inactive
SLC16A13,0.46,inactive
SLC16A13,0.25,inactive
SLC16A13,0.06,inactive
SLC16A13,-0.81,inactive
ETS2-AS1 (ETS2 antisense RNA 1),-0.47,inactive
ETS2-AS1 (ETS2 antisense RNA 1),-0.9,inactive
ETS2-AS1 (ETS2 antisense RNA 1),-1.07,inactive
HDGFL1 (HDGF like 1),1.66,inactive
HDGFL1 (HDGF like 1),2.33,inactive
HDGFL1 (HDGF like 1),-0.33,inactive
HDGFL1 (HDGF like 1),1.29,inactive
DCUN1D5 (defective in cullin neddylation 1 domain containing 5),-0.23,inactive
DCUN1D5 (defective in cullin neddylation 1 domain containing 5),-0.11,inactive
DCUN1D5 (defective in cullin neddylation 1 domain containing 5),0.87,inactive
DCUN1D5 (defective in cullin neddylation 1 domain containing 5),-0.26,inactive
NR6A1 (nuclear receptor subfamily 6 group A member 1),-0.36,inactive
NR6A1 (nuclear receptor subfamily 6 group A member 1),0.04,inactive
NR6A1 (nuclear receptor subfamily 6 group A member 1),0.92,inactive
NR6A1 (nuclear receptor subfamily 6 group A member 1),-0.28,inactive
FBL (fibrillarin rRNA 2'-O-methyltransferase),-0.23,inactive
FBL (fibrillarin rRNA 2'-O-methyltransferase),1.03,inactive
FBL (fibrillarin rRNA 2'-O-methyltransferase),0.1,inactive
FBL (fibrillarin rRNA 2'-O-methyltransferase),0.88,inactive
ADCY8 (adenylate cyclase 8),0.74,inactive
ADCY8 (adenylate cyclase 8),2.04,inactive
ADCY8 (adenylate cyclase 8),0,inactive
ADCY8 (adenylate cyclase 8),0.97,inactive
"DMWD (DM1 locus, WD repeat containing)",0.89,inactive
"DMWD (DM1 locus, WD repeat containing)",1.35,inactive
"DMWD (DM1 locus, WD repeat containing)",1.92,inactive
"DMWD (DM1 locus, WD repeat containing)",1.71,inactive
RASIP1 (Ras interacting protein 1),0.15,inactive
RASIP1 (Ras interacting protein 1),-0.53,inactive
RASIP1 (Ras interacting protein 1),-1.02,inactive
RASIP1 (Ras interacting protein 1),0.58,inactive
AFF4 (ALF transcription elongation factor 4),0.34,inactive
AFF4 (ALF transcription elongation factor 4),0.79,inactive
AFF4 (ALF transcription elongation factor 4),0.18,inactive
AFF4 (ALF transcription elongation factor 4),0.61,inactive
DEFB134 (defensin beta 134),-0.4,inactive
DEFB134 (defensin beta 134),-0.18,inactive
DEFB134 (defensin beta 134),-0.37,inactive
DEFB134 (defensin beta 134),-0.81,inactive
"NAA10 (N-alpha-acetyltransferase 10, NatA catalytic subunit)",-0.03,inactive
"NAA10 (N-alpha-acetyltransferase 10, NatA catalytic subunit)",0.34,inactive
"NAA10 (N-alpha-acetyltransferase 10, NatA catalytic subunit)",0.11,inactive
"NAA10 (N-alpha-acetyltransferase 10, NatA catalytic subunit)",-1.01,inactive
